These are yes or no findings as the source states them, for the method shown. Binding seen in cells or lysates may run through a third protein. Some results given as binding are weak or reduced against the parent protein; the word gives no strength.
Key:
[1] = target: Epidermal growth factor receptor (EGFR), as in the GST pull-down (UniProt Q01279); assay: pull-down; GST pull-down of CTHRC1 and EGFR; which partner carried GST and the conditions are not told in the text shown
[2] = target: Epidermal growth factor receptor (EGFR), as in the cellular co-immunoprecipitation (UniProt Q01279); assay: co-IP; cellular co-immunoprecipitation of CTHRC1 and EGFR, IP followed by immunoblotting; cells and antibodies not told in the text shown

Protein sequences, listed by entry. Tags and fused reporters are not part of them. Residues count along the entry.
UniProt Q9D1D6, residues 33-245: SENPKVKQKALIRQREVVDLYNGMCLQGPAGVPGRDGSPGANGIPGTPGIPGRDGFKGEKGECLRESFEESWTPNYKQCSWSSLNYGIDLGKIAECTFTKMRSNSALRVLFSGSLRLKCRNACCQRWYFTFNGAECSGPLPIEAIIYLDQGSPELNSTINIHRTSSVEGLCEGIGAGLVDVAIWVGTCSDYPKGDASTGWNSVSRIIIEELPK

binding [1] | binding [2] | Substance
binds |  | Collagen triple helix repeat containing 1 (CTHRC1), as in the GST pull-down (from UniProt Q9D1D6 33-245)
 | binds | Collagen triple helix repeat containing 1 (CTHRC1), as in the cellular co-immunoprecipitation (from UniProt Q9D1D6 33-245)
